PubChem BioAssay AID1224830 – NIAID | 2016

Assay: 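Regulators of TLR4 signalling towards TNF-alpha in macrophage-like cells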 (primary screen)
Cells: human THP-1 monocytic leukaemia cells, TNF dual-luciferase reporter clone, PMA-differentiated to macrophage-like cells
Knock-down reagent: siRNA pool against human genes, 50 nM
Time to read-out: LPS for 4 h, given about 3 days after siRNA transfection
Conditions: bacterial LPS (TLR4 ligand), 10 ng/ml
Measured: 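Ratio of firefly to renilla light, scaled to the plate median and expressed as a robust z-score per replicate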
Scale: TNF reporter robust z-score: higher = stronger TNF reporter response to LPS
Active means: 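Each well counts as active if its z-score is over 2.8 or under -1.5; controls are left without a call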
Shown is a random part of about 18,000 reagents tested. In the full data, about 2,900 (16%) were called active. 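Calls are made per well; low scores hint the gene aids the LPS response, high scores that it dampens it.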 A number with no mark means an inactive call. Repeated entries: four replicate wells of each siRNA pool.

How did the screen score NCSTN?
TNF reporter robust z-score: -1.45

How did the screen score NCSTN?
TNF reporter robust z-score: -0.83

What is on record for NCSTN?
TNF reporter robust z-score: -1.32

With NCSTN, how do the results read?
TNF reporter robust z-score: -1.08

For BCAS2, what does the deposit list?
TNF reporter robust z-score: -1.42

What is on record for BCAS2?
TNF reporter robust z-score: -0.77

For BCAS2, what does the deposit list?
TNF reporter robust z-score: -0.73

What did the screen give for BCAS2?
TNF reporter robust z-score: -0.15

Which result is listed for GARIN1A?
TNF reporter robust z-score: -0.45

With GARIN1A, what does the deposit list?
TNF reporter robust z-score: -0.35

With GARIN1A, what does the deposit list?
TNF reporter robust z-score: 0.16

What did the screen give for GARIN1A?
TNF reporter robust z-score: 0.21

How did the screen score RNF149?
TNF reporter robust z-score: -0.35

For RNF149, what was measured?
TNF reporter robust z-score: 0.81

What did the screen give for RNF149?
TNF reporter robust z-score: 0.86

With RNF149, how do the results read?
TNF reporter robust z-score: -1.46

With CER1, how do the results read?
TNF reporter robust z-score: 0.45

For CER1, how do the results read?
TNF reporter robust z-score: 0.12

For CER1, what was measured?
TNF reporter robust z-score: -0.02

For CER1, what was measured?
TNF reporter robust z-score: -0.8

With TRIM58, how do the results read?
TNF reporter robust z-score: 2.98 (active)

What is on record for TRIM58?
TNF reporter robust z-score: 1.49

With TRIM58, how do the results read?
TNF reporter robust z-score: 1.58

How did the screen score TRIM58?
TNF reporter robust z-score: 0.31

What is on record for MB21D2?
TNF reporter robust z-score: -1.26

How did the screen score MB21D2?
TNF reporter robust z-score: -0.21

For MB21D2, how do the results read?
TNF reporter robust z-score: -1.17

How did the screen score MB21D2?
TNF reporter robust z-score: -1.09

With KYAT3, how do the results read?
TNF reporter robust z-score: 0.13

What did the screen give for KYAT3?
TNF reporter robust z-score: 0.81

With KYAT3, what was measured?
TNF reporter robust z-score: -0.39

What is on record for KYAT3?
TNF reporter robust z-score: 0.57

For OR4K2, how do the results read?
TNF reporter robust z-score: 0.17

Which result is listed for OR4K2?
TNF reporter robust z-score: 0.95

Which result is listed for OR4K2?
TNF reporter robust z-score: 0.18

For OR4K2, how do the results read?
TNF reporter robust z-score: 0.91

Which result is listed for COL27A1?
TNF reporter robust z-score: 3.25 (active)

Which result is listed for COL27A1?
TNF reporter robust z-score: 3.75 (active)

For COL27A1, what does the deposit list?
TNF reporter robust z-score: 1.32

What did the screen give for COL27A1?
TNF reporter robust z-score: 2.12

What is on record for OR5T2?
TNF reporter robust z-score: 0.87

Which result is listed for OR5T2?
TNF reporter robust z-score: 1.35

For OR5T2, how do the results read?
TNF reporter robust z-score: 0.78

How did the screen score OR5T2?
TNF reporter robust z-score: 0.68

For BNIP3L, how do the results read?
TNF reporter robust z-score: -0.44

What did the screen give for BNIP3L?
TNF reporter robust z-score: -0.7

With BNIP3L, what does the deposit list?
TNF reporter robust z-score: -0.33

With BNIP3L, what does the deposit list?
TNF reporter robust z-score: -0.13

For ZG16, what does the deposit list?
TNF reporter robust z-score: -0.35

What is on record for ZG16?
TNF reporter robust z-score: -0.6

For ZG16, what does the deposit list?
TNF reporter robust z-score: 0.08

For ZG16, what does the deposit list?
TNF reporter robust z-score: 0.04

How did the screen score PRKAG1?
TNF reporter robust z-score: -0.49

What is on record for PRKAG1?
TNF reporter robust z-score: -1.25

What did the screen give for PRKAG1?
TNF reporter robust z-score: -0.38

What did the screen give for PRKAG1?
TNF reporter robust z-score: 0.02

How did the screen score IFRD1?
TNF reporter robust z-score: 2.26

For IFRD1, what was measured?
TNF reporter robust z-score: 1.91

Which result is listed for IFRD1?
TNF reporter robust z-score: 2.14

With IFRD1, what does the deposit list?
TNF reporter robust z-score: 4.62 (active)
